This assay concerns the target pGBKT7-PtpA (Gal4-BD fusion of Mtb PtpA) (Mycobacterium tuberculosis) (UniProt P9WIA1). Put plainly: two-hybrid.

Protein sequences, listed by entry. Tags and fused reporters are not part of them.
UniProt P9WIA1: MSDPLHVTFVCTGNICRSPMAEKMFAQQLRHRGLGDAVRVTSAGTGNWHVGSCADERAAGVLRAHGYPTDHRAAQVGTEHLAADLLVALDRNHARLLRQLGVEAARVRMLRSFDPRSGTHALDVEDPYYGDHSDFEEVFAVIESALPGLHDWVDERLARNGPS
UniProt Q96LA8: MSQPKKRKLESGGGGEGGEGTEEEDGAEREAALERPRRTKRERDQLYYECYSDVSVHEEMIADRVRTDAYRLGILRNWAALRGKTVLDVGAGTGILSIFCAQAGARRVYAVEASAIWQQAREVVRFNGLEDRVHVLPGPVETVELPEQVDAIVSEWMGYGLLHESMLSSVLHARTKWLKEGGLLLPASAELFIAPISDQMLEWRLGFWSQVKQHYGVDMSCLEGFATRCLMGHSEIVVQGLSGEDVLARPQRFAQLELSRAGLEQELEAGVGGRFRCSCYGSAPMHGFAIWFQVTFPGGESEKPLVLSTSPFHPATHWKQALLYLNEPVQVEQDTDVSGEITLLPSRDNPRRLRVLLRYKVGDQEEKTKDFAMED

No constants are given. Whether binding was seen depends on the method and setting. Some results given as binding are weak or reduced against the parent protein; the word gives no strength.

Consider “pGADT7-PRMT6 (from UniProt Q96LA8 1-375)”, for which the binding result is listed as “binds”.

For the origin of these results see publication PMC10023711.
